Here are results for 29 compounds from the supplement of paper PMC4604168 (melanoma cell lines).

Structures are written as SMILES. The list shows a part of the results. Many values rest on one well or one pass, so single values are uncertain.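 Imaging used 1,536-well plates; nuclei positive for cleaved PARP by antibody were divided by total DNA-stained nuclei to yield the apoptosis fraction. Doses for screening kept most cells viable, and cell lines differ markedly in resting and induced cleaved-PARP levels.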

The assay deals with CBRC034 (line from a melanoma biopsy). The assay is described as follows: cleaved PARP positive nuclei fraction relative to DMSO control; melanoma cells; higher = more apoptosis. The settings on record: library dose: low library concentration; 72 h.
Turning to `C[C@@H]1CCN(C(=O)CC#N)C[C@@H]1N(C)c1ncnc2[nH]ccc12` + O=C(Oc1ccc([N+](=O)[O-])cc1)N1CCC(C(O)(c2ccc3c(c2)OCO3)c2ccc3c(c2)OCO3)CC1 [JZL184] (first compound 1 µM, partner dose 1 µM), the “cleaved PARP positive nuclei fraction” value was found to be 85.6%.

Regarding `C[As](C)SC[C@H](NC(=O)CC[C@H](N)C(=O)O)C(=O)NCC(=O)O` [Darinaparsin] + C/C(O)=C(\C#N)C(=O)Nc1cc(Br)ccc1Br [LFM-A13] (first compound 0.4 µM, partner dose 2 µM), the “cleaved PARP positive nuclei fraction” value stood at 191%. As for `Cn1c(=O)n(-c2ccc(C(C)(C)C#N)cc2)c2c3cc(-c4cnc5ccccc5c4)ccc3ncc21` + N.N.[Cl][Pt][Cl] [cisplatin] (first compound 0.004 µM, partner dose 1.6 µM), the “cleaved PARP positive nuclei fraction” value amounted to 97%. For the compound `CC(=O)O[C@@]12CO[C@@H]1C[C@H](O)[C@@]1(C)C(=O)[C@H](O)C3=C(C)[C@@H](OC(=O)[C@H](O)[C@@H](NC(=O)OC(C)(C)C)c4ccccc4)C[C@@](O)([C@@H](OC(=O)c4ccccc4)[C@H]21)C3(C)C` [Docetaxel] + C[As](C)SC[C@H](NC(=O)CC[C@H](N)C(=O)O)C(=O)NCC(=O)O [Darinaparsin] (first compound 0.0001 µM, partner dose 0.4 µM), the “cleaved PARP positive nuclei fraction” value is 75%. As for `C[C@]12O[C@H](C[C@]1(O)CO)n1c3ccccc3c3c4c(c5c6ccccc6n2c5c31)CNC4=O` [Lestaurtinib] + Cn1c(Nc2ccc(C(F)(F)F)cc2)nc2cc(Oc3ccnc(-c4ncc(C(F)(F)F)[nH]4)c3)ccc21 [CHIR265] (first compound 0.004 µM, partner dose 0.08 µM), the figure is 191%; as for `Cn1cc(C2=C(c3cn(C4CCN(Cc5ccccn5)CC4)c4ccccc34)C(=O)NC2=O)c2ccccc21` [Enzastaurin] + Cc1cc(Nc2cc(N3CCN(C)CC3)nc(/C=C/c3ccccc3)n2)n[nH]1 [ENMD2076] (first compound 0.8 µM, partner dose 0.04 µM), 125%.

On to `Cc1cc(Nc2cc(N3CCN(C)CC3)nc(Sc3ccc(NC(=O)C4CC4)cc3)n2)n[nH]1` [Tozasertib] + N.N.[Cl][Pt][Cl] [cisplatin] (first compound 0.006 µM, partner dose 1.6 µM), for which the “cleaved PARP positive nuclei fraction” value was determined as 84.4%. For the compound `C[C@]12O[C@H](C[C@]1(O)CO)n1c3ccccc3c3c4c(c5c6ccccc6n2c5c31)CNC4=O` [Lestaurtinib] + C[C@@H](Oc1cc(-c2cnn(C3CCNCC3)c2)cnc1N)c1c(Cl)ccc(F)c1Cl [Crizotinib] (first compound 0.004 µM, partner dose 0.2 µM), the “cleaved PARP positive nuclei fraction” value is 67.7%.

Consider `N.N.[Cl][Pt][Cl]` [cisplatin] + Clc1ccc(Nc2nnc(Cc3ccncc3)c3ccccc23)cc1 [vatalanib] (first compound 1.6 µM, partner dose 2 µM), for which the “cleaved PARP positive nuclei fraction” value worked out at 146%. Take `O=c1[nH]nc(Sc2ncc([N+](=O)[O-])s2)n1-c1ccc2c(c1)OCCO2` + C[C@]12O[C@H](C[C@]1(O)CO)n1c3ccccc3c3c4c(c5c6ccccc6n2c5c31)CNC4=O [Lestaurtinib] (first compound 0.2 µM, partner dose 0.004 µM): the “cleaved PARP positive nuclei fraction” value was determined as 172%. As for `COc1cc([C@@H]2c3cc4c(cc3[C@@H](O[C@@H]3O[C@@H]5CO[C@@H](C)O[C@H]5[C@H](O)[C@H]3O)[C@H]3COC(=O)[C@H]23)OCO4)cc(OC)c1O` [etoposide] + N.N.[Cl][Pt][Cl] [cisplatin] (first compound 0.02 µM, partner dose 1.6 µM), the figure is 122%; as for `C[C@]12O[C@H](C[C@]1(O)CO)n1c3ccccc3c3c4c(c5c6ccccc6n2c5c31)CNC4=O` [Lestaurtinib] + C[As](C)SC[C@H](NC(=O)CC[C@H](N)C(=O)O)C(=O)NCC(=O)O [Darinaparsin] (first compound 0.004 µM, partner dose 0.4 µM), 40.5%. For `COc1ccc(COc2ccc(Cc3cnc(N)nc3N)cc2OC)cc1` + O=C(Oc1ccc([N+](=O)[O-])cc1)N1CCC(C(O)(c2ccc3c(c2)OCO3)c2ccc3c(c2)OCO3)CC1 [JZL184] (first compound 1 µM, partner dose 1 µM) the value was 464%. For the compound `Cn1cc(C2=C(c3cn(C4CCN(Cc5ccccn5)CC4)c4ccccc34)C(=O)NC2=O)c2ccccc21` [Enzastaurin] + NC1(c2ccc(-c3nc4ccn5c(=O)[nH]nc5c4cc3-c3ccccc3)cc2)CCC1 [MK2206] (first compound 0.8 µM, partner dose 0.4 µM), the “cleaved PARP positive nuclei fraction” value turned out to be 38.6%. Turning to `Cn1cc(C2=C(c3cn(C4CCN(Cc5ccccn5)CC4)c4ccccc34)C(=O)NC2=O)c2ccccc21` [Enzastaurin] + N.N.[Cl][Pt][Cl] [cisplatin] (first compound 0.8 µM, partner dose 1.6 µM), the “cleaved PARP positive nuclei fraction” value turned out to be 127%.

In the case of `C[As](C)SC[C@H](NC(=O)CC[C@H](N)C(=O)O)C(=O)NCC(=O)O` [Darinaparsin] + COc1cc(N2CCC(N3CCN(C)CC3)CC2)ccc1Nc1ncc(Cl)c(Nc2ccccc2S(=O)(=O)C(C)C)n1 [NVP-TAE684] (first compound 0.4 µM, partner dose 0.08 µM), the “cleaved PARP positive nuclei fraction” value worked out at 103%.

Consider `C[C@]12O[C@H](C[C@]1(O)CO)n1c3ccccc3c3c4c(c5c6ccccc6n2c5c31)CNC4=O` [Lestaurtinib] + Cn1nnc2c(C(N)=O)ncn2c1=O [temozolomide] (first compound 0.004 µM, partner dose 2 µM), for which the “cleaved PARP positive nuclei fraction” value came out at 86.4%. For `C[As](C)SC[C@H](NC(=O)CC[C@H](N)C(=O)O)C(=O)NCC(=O)O` [Darinaparsin] + COc1ccc(Cl)c(Nc2nc3ccccc3nc2NS(=O)(=O)c2cccc(NC(=O)C(C)(C)N)c2)c1 [XL147] (first compound 0.4 µM, partner dose 0.8 µM) the value was 294%; for `COCC[n+]1c2c(n(Cc3cnccn3)c1C)C(=O)c1ccccc1C2=O` + O=C(Oc1ccc([N+](=O)[O-])cc1)N1CCC(C(O)(c2ccc3c(c2)OCO3)c2ccc3c(c2)OCO3)CC1 [JZL184] (first compound 0.0004 µM, partner dose 1 µM), 83.1%; for `COc1cc([C@@H]2c3cc4c(cc3[C@@H](O[C@@H]3O[C@@H]5CO[C@@H](C)O[C@H]5[C@H](O)[C@H]3O)[C@H]3COC(=O)[C@H]23)OCO4)cc(OC)c1O` [etoposide] + C[As](C)SC[C@H](NC(=O)CC[C@H](N)C(=O)O)C(=O)NCC(=O)O [Darinaparsin] (first compound 0.02 µM, partner dose 0.4 µM), 72.5%.

In the case of `C[As](C)SC[C@H](NC(=O)CC[C@H](N)C(=O)O)C(=O)NCC(=O)O` [Darinaparsin] + Oc1cc(-c2nc(-c3ccccc3)[nH]c2-c2ccncc2)ccc1Cl [L779450] (first compound 0.4 µM, partner dose 0.2 µM), the “cleaved PARP positive nuclei fraction” value is 102%. With `Cc1nc(Nc2ncc(C(=O)Nc3c(C)cccc3Cl)s2)cc(N2CCN(CCO)CC2)n1` [dasatanib] + O=C(Oc1ccc([N+](=O)[O-])cc1)N1CCC(C(O)(c2ccc3c(c2)OCO3)c2ccc3c(c2)OCO3)CC1 [JZL184] (first compound 0.004 µM, partner dose 1 µM), the “cleaved PARP positive nuclei fraction” value turned out to be 143%. Turning to `C[C@]12O[C@H](C[C@]1(O)CO)n1c3ccccc3c3c4c(c5c6ccccc6n2c5c31)CNC4=O` [Lestaurtinib] + Cc1nc(Nc2ncc(C(=O)Nc3c(C)cccc3Cl)s2)cc(N2CCN(CCO)CC2)n1 [dasatanib] (first compound 0.004 µM, partner dose 0.004 µM), the “cleaved PARP positive nuclei fraction” value was found to be 125%. As to `C[As](C)SC[C@H](NC(=O)CC[C@H](N)C(=O)O)C(=O)NCC(=O)O` [Darinaparsin] + Cn1cc(/C=C2\C(=O)Nc3cccnc32)c2ccccc21 [GW441756] (first compound 0.4 µM, partner dose 0.4 µM), the “cleaved PARP positive nuclei fraction” value was found to be 84.7%.

In the case of `O=C(CCCCCCC(=O)Nc1ccccc1)NO` [vorinostat] + O=C(Oc1ccc([N+](=O)[O-])cc1)N1CCC(C(O)(c2ccc3c(c2)OCO3)c2ccc3c(c2)OCO3)CC1 [JZL184] (first compound 0.08 µM, partner dose 1 µM), the “cleaved PARP positive nuclei fraction” value was found to be 98.2%. As to `C=CCn1c(=O)c2cnc(Nc3ccc(N4CCN(C)CC4)cc3)nc2n1-c1cccc(C(C)(C)O)n1` + C/C(O)=C(\C#N)C(=O)Nc1cc(Br)ccc1Br [LFM-A13] (first compound 0.02 µM, partner dose 2 µM), the “cleaved PARP positive nuclei fraction” value worked out at 97.7%. As to `Cc1cc(SCc2sc(-c3ccc(C(F)(F)F)c(F)c3)nc2C)ccc1OCC(=O)O` + COc1cc2ncnc(Nc3ccc(Oc4ccccc4)cc3)c2cc1OC [SrcI1] (first compound 2 µM, partner dose 2 µM), the “cleaved PARP positive nuclei fraction” value was 93.8%. For `Cn1cc(C2=C(c3cn(C4CCN(Cc5ccccn5)CC4)c4ccccc34)C(=O)NC2=O)c2ccccc21` [Enzastaurin] + CC(=O)O[C@@]12CO[C@@H]1C[C@H](O)[C@@]1(C)C(=O)[C@H](O)C3=C(C)[C@@H](OC(=O)[C@H](O)[C@@H](NC(=O)OC(C)(C)C)c4ccccc4)C[C@@](O)([C@@H](OC(=O)c4ccccc4)[C@H]21)C3(C)C [Docetaxel] (first compound 0.8 µM, partner dose 0.0001 µM) the value was 176%; for `O=C(/C=C/c1cccnc1)NCCCCC1CCN(C(=O)c2ccccc2)CC1` + C[As](C)SC[C@H](NC(=O)CC[C@H](N)C(=O)O)C(=O)NCC(=O)O [Darinaparsin] (first compound 0.01 µM, partner dose 0.4 µM), 1460%.
